Counter-ions that a name gives are not always drawn. The list shows a part of the results. This data set is noisy: repeats of one test often differ as much as different tests do.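 The human kidney-derived cells carry a stably integrated construct of eight TEAD-binding elements driving luciferase, read by luminescence in a drug-repurposing library screen. A compound counts as a hit when its signal is more than five robust Z scores above the plate mean.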
Tested on: HEK293A TEAD-LUC reporter
Test: TEAD-luciferase reporter activity (YAP activation), robust Z score vs plate; higher = stronger YAP/TEAD activation
Conditions: 24 h

Compound	TEAD-luciferase reporter activity (compound concentration: 200 nM)	TEAD-luciferase reporter activity (compound concentration: 2 uM)	TEAD-luciferase reporter activity (compound concentration: 10 uM)
CC1=NN(c2ccc(C)c(C)c2)C(=O)/C1=N/Nc1cccc(-c2cccc(-c3nnn[nH]3)c2)c1O	inactive: 0.961	inactive: -1.64	active: 6.85
O=C(O)CCCc1ccc(C(CCCC(F)(F)C(F)(F)F)NS(=O)(=O)c2ccc(F)cc2)cc1 (single isomer, unassigned; (+))	inactive: 4.91	inactive: 1.3	inactive: -0.665
Cc1nc(-c2ccc(OCC(C)C)c(C#N)c2)sc1C(=O)O [febuxostat]	active: 5.83	inactive: -1.88	inactive: -0.243
COc1ccc(Cc2c(O[C@@H]3O[C@H](CO)[C@@H](O)[C@H](O)[C@H]3O)nn(C(C)C)c2C)c(F)c1	inactive: -2.03	inactive: -0.427	inactive: 0.669
Nc1ccc(S(=O)(=O)Nc2nccs2)cc1	inactive: -0.227	inactive: -0.688	inactive: -0.0864
CCN(CC)CCOC(=O)c1cccnc1	inactive: -1.63	inactive: 1.32	inactive: -0.505
COc1cccc(-c2ccc(NC(=O)C3=C(C(=O)O)CCC3)c(F)c2)c1 [vidofludimus]	inactive: -0.616	inactive: -1.51	inactive: 3.28
N/C(=N\N=C\c1ccc(Cl)cc1)N/N=C/c1ccc(Cl)cc1 [Robenidine hydrochloride]	inactive: -0.0806	inactive: 0.363	active: 7.54
Cn1nnnc1SCC1=C(C(=O)[O-])N2C(=O)[C@@H](NC(=O)[C@H](OC=O)c3ccccc3)[C@H]2SC1 [Cefamandole Nafate]		inactive: 0.207	
CC(C)(NS(=O)(=O)c1ccc(Oc2ccc(F)cc2)cc1)C(=O)NO	inactive: -1.01	inactive: -1.39	inactive: 1.07
CCCCOc1ccc(C(=O)OCCOCCN(CC)CC)cc1N	inactive: -0.00466	inactive: -1.21	inactive: 2.75
O=c1[nH]c(=O)c2[nH]c(=O)[nH]c2[nH]1 [Uric acid]	inactive: -0.775	inactive: -0.792	inactive: 0.221
CC(=O)N(O)[C@@H]1c2cc(C#N)ccc2OC(C)(C)[C@H]1O	inactive: -0.401	inactive: -0.294	inactive: -1.74
CC(C)C[C@H](NC(=O)[C@H](Cc1ccccc1)NC(=O)c1cnccn1)B(O)O [Bortezomib]	inactive: -0.14	inactive: -0.102	inactive: 1.17
COC(=O)Nc1nc2cc(C(=O)c3ccccc3)ccc2[nH]1 [Mebendazole]	inactive: 4.01		inactive: 1.91
COC(=O)Nc1nc2cc(C(=O)c3ccccc3)ccc2[nH]1 [mebendazole chewable tablet]		inactive: 0.231	
CO[C@H]1CC[C@H](N2C(=O)CNc3ncc(-c4ccc(C(C)(C)O)nc4)nc32)CC1	inactive: 3.9	inactive: -1.94	inactive: -1.54
CCc1cc(C(N)=S)ccn1 [Ethionamide]	inactive: 0.169	inactive: -0.588	inactive: 2.21

Record cards, from the list above. Values in the order: TEAD-luciferase reporter activity (compound concentration: 200 nM)	TEAD-luciferase reporter activity (compound concentration: 2 uM)	TEAD-luciferase reporter activity (compound concentration: 10 uM)
O=C(O)CCCc1ccc(C(CCCC(F)(F)C(F)(F)F)NS(=O)(=O)c2ccc(F)cc2)cc1 (single isomer, unassigned; (+)) as listed: inactive: 4.91	inactive: 1.3	inactive: -0.665
CC(C)C[C@H](NC(=O)[C@H](Cc1ccccc1)NC(=O)c1cnccn1)B(O)O [Bortezomib] as listed: inactive: -0.14	inactive: -0.102	inactive: 1.17

(cont.)

Compound	TEAD-luciferase reporter activity (compound concentration: 200 nM)	TEAD-luciferase reporter activity (compound concentration: 2 uM)	TEAD-luciferase reporter activity (compound concentration: 10 uM)
CC(C)C[C@H](NC(=O)[C@H](Cc1ccccc1)C[C@@H](O)[C@H](Cc1ccccc1)NC(=O)OC(C)(C)C)C(=O)N[C@@H](Cc1ccccc1)C(N)=O	inactive: -1.16	inactive: 1.85	inactive: 0.418
NC(CCC(=O)NCCS(=O)(=O)O)C(=O)O (centres undefined)	inactive: -1.19	inactive: -1.51	inactive: -1.11
CS(=O)(=O)c1ccc(C(=O)Nc2ccc(Cl)c(-c3ccccn3)c2)c(Cl)c1 [Vismodegib]	inactive: -3.96	inactive: -0.472	inactive: -0.528
CN(C)/C(N)=N\c1ccccc1N1CCOCC1	inactive: -2.76	inactive: -0.619	inactive: -0.134
CCCc1ccc(NS(=O)(=O)Cc2ccccc2)c(=O)n1CC(=O)NCc1ccc(N)nc1C	inactive: 1.49	inactive: 1.33	inactive: -1.03
CS(=O)(=O)Nc1ccc2c(c1)C(O)CC1(CCN(C3CCc4cc(C#N)ccc4C3)CC1)O2 (centres undefined)	inactive: -0.944	inactive: 0.0472	inactive: -0.516
CC(C)C(=O)c1c(C(C)C)nn2ccccc12 [ibudilast]	inactive: -0.0899	inactive: 1.5	inactive: -1.8
CC(=O)OCC(CCn1cnc2cnc(N)nc21)COC(C)=O [famciclovir]		inactive: 0.411	
CC(=O)OCC(CCn1cnc2cnc(N)nc21)COC(C)=O	inactive: -1.39		inactive: 0.295
CC(OC(=O)NCC1(CC(=O)O)CCCCC1)OC(=O)C(C)C (centres undefined) [gabapentin enacarbil]	inactive: -2.16	inactive: 0.352	inactive: -1.14
CCOC(=O)C(COC(=O)Cc1ccc(NC(=O)c2ccccc2-c2ccc(C(F)(F)F)cc2)c(C(=O)N(C)C)c1)(C(=O)OCC)c1ccccc1 [granotapide]	inactive: 3.76	inactive: 0.718	inactive: -0.921
CCn1nc2c(-c3ccc(Cl)cc3)c(-c3cnc(C)nc3)c(=O)n(Cc3ccc(C(F)(F)F)nc3C)n2c1=O	inactive: 1.44	inactive: -0.599	inactive: 0.974
CC(=O)O[C@]1(C(C)=O)CCC2C3C=C(C)C4=CC(=O)CC[C@]4(C)C3CC[C@@]21C (some centres undefined) [megestrol acetate, Par]	inactive: -1.34	inactive: 1.24	inactive: 0.558
CCN1C(=O)CNc2ncc(-c3ccc(-c4nc[nH]n4)nc3C)nc21	inactive: 0.295	inactive: -0.386	inactive: -1.37
CC(=O)Nc1ccc(OC(=O)Cc2ccc(C(=O)c3ccc(C)cc3)n2C)cc1	inactive: -0.119	inactive: -0.525	inactive: 1.81
O=C1CNC(=O)/C1=C/NCc1ccccc1 [beprodone, MarcoPolo]	inactive: 0.833		inactive: -1.31
O=C1CNC(=O)/C1=C/NCc1ccccc1 [beprodone]		inactive: 0.581	

From the supplement of paper PMC10735217
